Results as given in article PMC9922823.
These are yes or no findings as the source states them, for the method shown. Binding seen in cells or lysates may run through a third protein. Some results given as binding are weak or reduced against the parent protein; the word gives no strength. Tags and fused reporters may be left off the sequences shown.

The chains behind the UniProt entries cited, without tags or fusion partners.
UniProt Q01939: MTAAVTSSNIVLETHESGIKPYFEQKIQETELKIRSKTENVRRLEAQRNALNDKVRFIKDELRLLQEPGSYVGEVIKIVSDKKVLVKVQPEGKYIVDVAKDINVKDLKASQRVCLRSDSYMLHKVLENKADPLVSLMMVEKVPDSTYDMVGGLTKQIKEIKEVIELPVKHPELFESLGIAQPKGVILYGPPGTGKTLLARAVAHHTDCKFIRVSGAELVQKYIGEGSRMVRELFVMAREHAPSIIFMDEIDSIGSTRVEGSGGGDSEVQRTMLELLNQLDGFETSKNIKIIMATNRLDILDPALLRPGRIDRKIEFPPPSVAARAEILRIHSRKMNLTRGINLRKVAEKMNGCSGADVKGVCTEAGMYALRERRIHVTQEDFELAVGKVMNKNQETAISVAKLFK

Tests used:
[1] = biological target: T1, FLAG-tagged Rpt1 (S. cerevisiae) (UniProt P33299); test: pull-down; FLAG-Rpt1 as bait from the E. coli coexpression system (wildtype and rpt5-Δ5); anti-FLAG M2-agarose; 5% native-PAGE and immunoblotting
T1 sequence: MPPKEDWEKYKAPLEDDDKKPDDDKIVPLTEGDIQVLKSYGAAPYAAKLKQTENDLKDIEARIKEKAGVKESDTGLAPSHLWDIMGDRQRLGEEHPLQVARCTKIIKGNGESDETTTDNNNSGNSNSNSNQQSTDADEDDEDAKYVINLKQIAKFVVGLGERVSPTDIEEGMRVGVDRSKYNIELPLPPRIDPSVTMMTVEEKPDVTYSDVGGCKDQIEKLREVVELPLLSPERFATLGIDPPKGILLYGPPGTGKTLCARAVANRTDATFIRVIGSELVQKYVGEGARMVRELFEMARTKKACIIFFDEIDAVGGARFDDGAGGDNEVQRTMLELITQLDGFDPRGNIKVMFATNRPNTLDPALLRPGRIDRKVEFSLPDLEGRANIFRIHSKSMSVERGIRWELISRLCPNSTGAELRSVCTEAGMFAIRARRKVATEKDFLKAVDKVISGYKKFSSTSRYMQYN

[2] = biological target: T2, His6-tagged Rpt3 (S. cerevisiae), P33298; test: pull-down; His6-Rpt3 as bait from the E. coli coexpression system (wildtype and rpt5-Δ5); TALON resin; 5% native-PAGE and immunoblotting; details: remark: other sources report otherwise
T2 chain: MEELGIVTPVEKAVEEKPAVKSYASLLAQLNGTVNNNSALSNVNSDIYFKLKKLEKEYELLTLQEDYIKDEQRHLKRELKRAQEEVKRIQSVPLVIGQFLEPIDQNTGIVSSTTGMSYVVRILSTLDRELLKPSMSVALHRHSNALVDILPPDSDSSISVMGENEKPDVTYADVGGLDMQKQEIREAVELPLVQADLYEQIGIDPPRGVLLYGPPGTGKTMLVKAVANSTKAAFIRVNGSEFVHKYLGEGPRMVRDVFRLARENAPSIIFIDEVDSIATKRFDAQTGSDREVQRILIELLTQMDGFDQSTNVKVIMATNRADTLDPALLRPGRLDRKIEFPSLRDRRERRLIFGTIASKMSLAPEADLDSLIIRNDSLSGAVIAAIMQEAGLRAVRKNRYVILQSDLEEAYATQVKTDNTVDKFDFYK

[3] = biological target: T3, Rpn11 harboring a TeV-ProA affinity tag (S. cerevisiae), P43588; test: pull-down; Rpn11 with TeV-ProA tag as bait from yeast lysate on IgG resin, Hepes buffers with NP-40, eluted with tobacco etch virus protease; native-PAGE and SDS-PAGE with immunoblotting; hsm3Δ cells (also nas2Δ and hsm3Δnas2Δ); details: remark: other sources report otherwise
T3 chain: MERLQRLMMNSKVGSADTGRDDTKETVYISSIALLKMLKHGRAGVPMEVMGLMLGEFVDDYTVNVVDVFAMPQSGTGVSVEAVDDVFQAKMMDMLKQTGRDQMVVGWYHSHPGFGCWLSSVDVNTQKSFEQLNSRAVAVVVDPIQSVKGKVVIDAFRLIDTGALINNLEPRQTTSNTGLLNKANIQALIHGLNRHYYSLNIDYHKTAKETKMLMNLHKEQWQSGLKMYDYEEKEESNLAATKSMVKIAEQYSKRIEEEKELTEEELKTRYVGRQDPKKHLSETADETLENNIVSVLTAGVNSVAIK

[4] = biological target: T4, 3xFLAG-tagged Nas2 (S. cerevisiae), P40555; test: pull-down; Nas2-3xFLAG as bait from hsm3Δ yeast lysate, Hepes buffers; native-PAGE and immunoblotting for Rpn8; details: remark: other sources report otherwise
T4 chain: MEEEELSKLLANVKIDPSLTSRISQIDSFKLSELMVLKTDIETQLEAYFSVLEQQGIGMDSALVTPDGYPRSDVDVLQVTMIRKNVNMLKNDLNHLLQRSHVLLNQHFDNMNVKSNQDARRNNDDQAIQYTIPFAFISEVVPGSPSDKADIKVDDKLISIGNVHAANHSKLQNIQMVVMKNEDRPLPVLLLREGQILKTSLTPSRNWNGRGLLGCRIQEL

Rpt6 (from UniProt Q01939 1-405) was tested, and the binding [1] was “binds”.

B1: Nas2, P40555 1-220 (protein)
chain: T4 chain
With B1 the binding [2] was “binds” and the binding [3] was “binds”.

B2: Rpn8, Q08723 1-338 (protein)
chain: MSLQHEKVTIAPLVLLSALDHYERTQTKENKRCVGVILGDANSSTIRVTNSFALPFEEDEKNSDVWFLDHNYIENMNEMCKKINAKEKLIGWYHSGPKLRASDLKINELFKKYTQNNPLLLIVDVKQQGVGLPTDAYVAIEQVKDDGTSTEKTFLHLPCTIEAEEAEEIGVEHLLRDVRDQAAGGLSIRLTNQLKSLKGLQSKLKDVVEYLDKVINKELPINHTILGKLQDVFNLLPNLGTPDDDEIDVENHDRINISNNLQKALTVKTNDELMVIYISNLVRSIIAFDDLIENKIQNKKIQEQRVKDKQSKVSDDSESESGDKEATAPLIQRKNKKN
For B2, the binding [4] was “binds”.

B3: Rpn12, P32496 1-274 (protein)
chain: MPSLAELTKSLSIAFENGDYAACEKLLPPIKIELIKNNLLIPDLSIQNDIYLNDLMITKRILEVGALASIQTFNFDSFENYFNQLKPYYFSNNHKLSESDKKSKLISLYLLNLLSQNNTTKFHSELQYLDKHIKNLEDDSLLSYPIKLDRWLMEGSYQKAWDLLQSGSQNISEFDSFTDILKSAIRDEIAKNTELSYDFLPLSNIKALLFFNNEKETEKFALERNWPIVNSKVYFNNQSKEKADYEDEMMHEEDQKTNIIEKAMDYAISIENIV
B3 was tested, and the binding [3] was “binds”.
